According to the supplement of paper PMC11732987, “Enantioselective OTUD7B fragment discovery through chemoproteomics screening and high-throughput optimisation” (Communications Chemistry, 2025):
The list shows a part of the results. The data scatter; read single values as rough.

Protein sequences, listed by entry. Tags and fused reporters are not part of them. Lines headed by an entry give the natural chain unless they say otherwise; changes in a name come on top. Residues count along the entry.
UniProt Q96G74: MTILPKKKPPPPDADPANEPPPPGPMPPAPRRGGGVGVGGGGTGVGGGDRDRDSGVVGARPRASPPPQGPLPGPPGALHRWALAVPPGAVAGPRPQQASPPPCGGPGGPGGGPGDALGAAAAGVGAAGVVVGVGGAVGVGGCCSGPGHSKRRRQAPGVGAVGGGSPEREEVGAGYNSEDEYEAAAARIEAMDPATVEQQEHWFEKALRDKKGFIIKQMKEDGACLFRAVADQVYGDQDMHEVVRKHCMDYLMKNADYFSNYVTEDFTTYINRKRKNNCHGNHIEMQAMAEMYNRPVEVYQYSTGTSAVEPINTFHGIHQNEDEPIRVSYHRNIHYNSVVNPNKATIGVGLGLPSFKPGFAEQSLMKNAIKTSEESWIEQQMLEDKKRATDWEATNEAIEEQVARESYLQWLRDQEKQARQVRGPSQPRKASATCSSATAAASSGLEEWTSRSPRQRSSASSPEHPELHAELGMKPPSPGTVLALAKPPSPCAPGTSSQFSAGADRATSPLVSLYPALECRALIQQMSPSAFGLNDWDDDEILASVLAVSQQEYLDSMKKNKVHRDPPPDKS
UniProt O00151: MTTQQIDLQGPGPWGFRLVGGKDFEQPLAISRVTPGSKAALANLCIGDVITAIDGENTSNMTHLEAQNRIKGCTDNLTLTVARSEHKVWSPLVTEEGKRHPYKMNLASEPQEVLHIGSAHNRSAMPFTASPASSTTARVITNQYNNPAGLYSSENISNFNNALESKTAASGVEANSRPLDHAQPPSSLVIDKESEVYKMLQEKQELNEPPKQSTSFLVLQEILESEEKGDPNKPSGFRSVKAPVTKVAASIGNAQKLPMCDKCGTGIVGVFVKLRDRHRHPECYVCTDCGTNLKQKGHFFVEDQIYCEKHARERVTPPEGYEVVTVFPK
UniProt Q8TEW0, 51-74: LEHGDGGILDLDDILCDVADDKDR
UniProt Q8IZ21: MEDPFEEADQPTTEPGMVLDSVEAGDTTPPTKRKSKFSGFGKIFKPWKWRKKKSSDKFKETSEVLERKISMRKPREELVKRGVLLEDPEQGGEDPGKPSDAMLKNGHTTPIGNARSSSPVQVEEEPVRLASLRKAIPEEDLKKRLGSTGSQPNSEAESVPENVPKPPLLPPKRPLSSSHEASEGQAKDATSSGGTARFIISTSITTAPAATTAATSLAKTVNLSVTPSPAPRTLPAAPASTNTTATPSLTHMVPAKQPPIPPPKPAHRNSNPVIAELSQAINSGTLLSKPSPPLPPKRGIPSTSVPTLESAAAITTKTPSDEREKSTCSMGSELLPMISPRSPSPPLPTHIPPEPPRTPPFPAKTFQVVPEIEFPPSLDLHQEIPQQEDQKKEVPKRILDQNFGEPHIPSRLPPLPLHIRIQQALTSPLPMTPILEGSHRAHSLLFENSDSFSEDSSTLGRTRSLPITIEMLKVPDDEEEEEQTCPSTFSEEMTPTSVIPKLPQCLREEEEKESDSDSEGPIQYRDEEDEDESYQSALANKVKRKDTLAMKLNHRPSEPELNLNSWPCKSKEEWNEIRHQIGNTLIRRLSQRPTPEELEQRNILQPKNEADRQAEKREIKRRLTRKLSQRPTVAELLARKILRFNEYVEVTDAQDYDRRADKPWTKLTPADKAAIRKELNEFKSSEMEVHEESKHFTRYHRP
UniProt Q9UQ80: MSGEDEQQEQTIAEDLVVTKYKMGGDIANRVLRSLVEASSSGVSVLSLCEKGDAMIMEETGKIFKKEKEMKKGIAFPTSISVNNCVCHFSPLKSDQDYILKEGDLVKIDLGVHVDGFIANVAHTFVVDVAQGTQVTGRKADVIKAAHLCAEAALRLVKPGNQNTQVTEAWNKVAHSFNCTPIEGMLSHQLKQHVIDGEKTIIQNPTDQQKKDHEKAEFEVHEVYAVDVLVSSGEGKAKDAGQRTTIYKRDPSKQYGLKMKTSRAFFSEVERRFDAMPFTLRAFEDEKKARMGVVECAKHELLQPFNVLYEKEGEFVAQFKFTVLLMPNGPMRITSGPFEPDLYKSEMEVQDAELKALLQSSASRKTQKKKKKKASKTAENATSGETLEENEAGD
UniProt Q9H4Z3, 246-265: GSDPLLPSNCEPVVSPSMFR
UniProt P29122: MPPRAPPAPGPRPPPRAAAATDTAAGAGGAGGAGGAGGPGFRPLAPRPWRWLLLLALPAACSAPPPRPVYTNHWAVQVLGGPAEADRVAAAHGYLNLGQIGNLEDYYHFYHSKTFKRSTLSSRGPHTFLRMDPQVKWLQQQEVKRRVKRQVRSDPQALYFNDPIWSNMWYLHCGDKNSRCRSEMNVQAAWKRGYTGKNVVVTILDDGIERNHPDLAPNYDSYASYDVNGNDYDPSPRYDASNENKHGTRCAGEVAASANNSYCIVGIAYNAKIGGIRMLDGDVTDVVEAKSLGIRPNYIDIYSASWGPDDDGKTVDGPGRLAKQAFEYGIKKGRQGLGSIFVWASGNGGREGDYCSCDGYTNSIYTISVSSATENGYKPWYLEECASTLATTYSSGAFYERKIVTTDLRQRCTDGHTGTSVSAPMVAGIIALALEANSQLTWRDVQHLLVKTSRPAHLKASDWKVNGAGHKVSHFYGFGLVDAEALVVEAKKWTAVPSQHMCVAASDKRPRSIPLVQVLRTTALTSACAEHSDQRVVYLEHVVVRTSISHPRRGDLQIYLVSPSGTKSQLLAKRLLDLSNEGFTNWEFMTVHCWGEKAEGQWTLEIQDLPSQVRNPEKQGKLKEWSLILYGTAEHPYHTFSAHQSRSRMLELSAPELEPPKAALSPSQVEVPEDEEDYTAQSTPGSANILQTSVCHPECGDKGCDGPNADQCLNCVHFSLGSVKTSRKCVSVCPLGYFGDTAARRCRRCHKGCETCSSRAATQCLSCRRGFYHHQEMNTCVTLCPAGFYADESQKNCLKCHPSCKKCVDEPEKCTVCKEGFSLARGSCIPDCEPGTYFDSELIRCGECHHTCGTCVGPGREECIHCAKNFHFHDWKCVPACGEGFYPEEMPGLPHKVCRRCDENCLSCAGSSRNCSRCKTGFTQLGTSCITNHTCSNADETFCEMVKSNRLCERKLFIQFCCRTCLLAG
UniProt P09874, whole entry, looked up: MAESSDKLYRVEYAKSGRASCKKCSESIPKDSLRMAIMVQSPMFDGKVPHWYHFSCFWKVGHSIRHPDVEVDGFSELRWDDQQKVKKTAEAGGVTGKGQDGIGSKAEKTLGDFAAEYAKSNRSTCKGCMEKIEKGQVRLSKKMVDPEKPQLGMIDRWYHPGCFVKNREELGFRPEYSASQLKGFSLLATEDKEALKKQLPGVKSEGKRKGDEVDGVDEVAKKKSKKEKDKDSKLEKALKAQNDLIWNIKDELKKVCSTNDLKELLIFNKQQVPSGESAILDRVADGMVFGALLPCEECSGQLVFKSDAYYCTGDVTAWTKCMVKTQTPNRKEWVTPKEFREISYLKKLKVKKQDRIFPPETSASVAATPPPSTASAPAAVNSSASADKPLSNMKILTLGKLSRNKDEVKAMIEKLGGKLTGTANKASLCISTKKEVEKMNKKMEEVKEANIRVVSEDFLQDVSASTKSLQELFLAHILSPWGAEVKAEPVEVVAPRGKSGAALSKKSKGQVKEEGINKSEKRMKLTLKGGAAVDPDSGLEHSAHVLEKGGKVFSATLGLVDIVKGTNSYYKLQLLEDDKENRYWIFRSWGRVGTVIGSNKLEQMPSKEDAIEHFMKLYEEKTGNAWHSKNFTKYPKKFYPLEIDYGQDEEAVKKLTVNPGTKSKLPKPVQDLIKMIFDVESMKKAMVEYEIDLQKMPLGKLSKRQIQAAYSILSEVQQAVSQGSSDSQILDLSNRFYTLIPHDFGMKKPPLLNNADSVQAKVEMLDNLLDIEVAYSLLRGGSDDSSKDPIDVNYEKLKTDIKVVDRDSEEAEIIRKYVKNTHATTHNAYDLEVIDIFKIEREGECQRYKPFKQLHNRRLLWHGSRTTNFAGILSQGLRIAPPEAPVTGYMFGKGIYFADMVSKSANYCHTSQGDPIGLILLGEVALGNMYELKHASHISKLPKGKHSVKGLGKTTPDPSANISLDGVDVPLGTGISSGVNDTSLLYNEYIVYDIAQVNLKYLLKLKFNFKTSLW
UniProt Q9H792: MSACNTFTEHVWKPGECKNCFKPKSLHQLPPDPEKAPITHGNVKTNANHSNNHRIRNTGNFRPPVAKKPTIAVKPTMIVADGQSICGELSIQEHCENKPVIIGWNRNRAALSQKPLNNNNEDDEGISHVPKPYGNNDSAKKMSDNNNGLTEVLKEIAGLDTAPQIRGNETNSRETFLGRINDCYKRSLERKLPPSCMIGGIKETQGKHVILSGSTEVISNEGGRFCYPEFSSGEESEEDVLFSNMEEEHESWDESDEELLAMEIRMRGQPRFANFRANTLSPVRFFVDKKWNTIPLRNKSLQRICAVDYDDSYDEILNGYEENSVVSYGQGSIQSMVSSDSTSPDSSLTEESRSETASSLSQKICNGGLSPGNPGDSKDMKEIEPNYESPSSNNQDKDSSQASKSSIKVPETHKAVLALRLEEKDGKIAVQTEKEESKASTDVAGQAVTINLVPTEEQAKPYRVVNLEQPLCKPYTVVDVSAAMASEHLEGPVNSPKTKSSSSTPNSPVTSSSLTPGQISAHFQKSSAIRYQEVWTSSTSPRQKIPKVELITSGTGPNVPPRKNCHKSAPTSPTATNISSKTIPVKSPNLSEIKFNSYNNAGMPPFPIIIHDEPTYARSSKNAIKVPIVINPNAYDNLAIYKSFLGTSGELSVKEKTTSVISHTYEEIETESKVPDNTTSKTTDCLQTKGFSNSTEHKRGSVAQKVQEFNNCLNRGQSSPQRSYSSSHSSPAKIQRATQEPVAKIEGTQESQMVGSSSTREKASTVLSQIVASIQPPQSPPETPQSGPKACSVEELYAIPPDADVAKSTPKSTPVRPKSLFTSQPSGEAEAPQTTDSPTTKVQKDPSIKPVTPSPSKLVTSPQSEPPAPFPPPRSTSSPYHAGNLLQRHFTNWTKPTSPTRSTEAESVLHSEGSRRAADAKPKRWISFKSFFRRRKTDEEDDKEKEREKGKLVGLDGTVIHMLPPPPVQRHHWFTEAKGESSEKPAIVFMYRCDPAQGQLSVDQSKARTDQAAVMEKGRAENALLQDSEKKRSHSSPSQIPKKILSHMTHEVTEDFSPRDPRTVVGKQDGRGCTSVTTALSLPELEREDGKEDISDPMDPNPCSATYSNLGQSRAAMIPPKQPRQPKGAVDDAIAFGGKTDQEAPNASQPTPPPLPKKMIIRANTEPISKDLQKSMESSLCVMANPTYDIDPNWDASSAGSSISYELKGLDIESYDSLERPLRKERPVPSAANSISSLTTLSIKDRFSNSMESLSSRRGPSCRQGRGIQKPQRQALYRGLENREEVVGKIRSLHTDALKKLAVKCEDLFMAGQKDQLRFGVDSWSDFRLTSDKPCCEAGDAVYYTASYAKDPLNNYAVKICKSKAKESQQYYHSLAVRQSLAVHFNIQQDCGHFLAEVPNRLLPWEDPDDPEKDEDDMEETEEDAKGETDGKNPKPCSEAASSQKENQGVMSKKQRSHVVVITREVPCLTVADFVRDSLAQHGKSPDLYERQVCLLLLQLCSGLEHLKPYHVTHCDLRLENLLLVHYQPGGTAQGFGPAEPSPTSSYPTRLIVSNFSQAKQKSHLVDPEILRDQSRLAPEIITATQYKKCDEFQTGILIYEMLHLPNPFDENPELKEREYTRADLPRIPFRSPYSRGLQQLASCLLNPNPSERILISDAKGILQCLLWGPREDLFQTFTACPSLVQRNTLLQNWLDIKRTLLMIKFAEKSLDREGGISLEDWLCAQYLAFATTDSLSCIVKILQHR
UniProt Q8N5Y8: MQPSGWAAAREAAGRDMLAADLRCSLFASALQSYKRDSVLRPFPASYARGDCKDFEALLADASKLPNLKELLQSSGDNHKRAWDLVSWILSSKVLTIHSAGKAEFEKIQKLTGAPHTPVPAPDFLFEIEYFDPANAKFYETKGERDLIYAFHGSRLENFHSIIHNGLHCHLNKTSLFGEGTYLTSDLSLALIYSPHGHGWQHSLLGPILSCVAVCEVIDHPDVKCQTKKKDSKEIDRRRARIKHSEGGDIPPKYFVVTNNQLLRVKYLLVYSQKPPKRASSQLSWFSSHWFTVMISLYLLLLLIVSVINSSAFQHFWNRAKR
UniProt Q9BUH6: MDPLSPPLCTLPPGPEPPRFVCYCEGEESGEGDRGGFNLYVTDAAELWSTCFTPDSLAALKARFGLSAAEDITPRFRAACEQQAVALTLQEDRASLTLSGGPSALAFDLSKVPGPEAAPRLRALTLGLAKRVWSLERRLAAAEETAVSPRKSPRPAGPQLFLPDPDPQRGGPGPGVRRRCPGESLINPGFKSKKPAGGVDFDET

Compound: ClCC(=O)N[C@@H]1CCCc2ccccc12
Assay: log2 mean competition ratio of IA-DTB cysteine labelling (DMSO/compound) (log2 ratio); higher = stronger cysteine engagement by compound
Details: 50 µM; treatment time: 4 h; cell line lysate: HEK293T
Description: (§1)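 IA-DTB competitive cysteine chemoproteomics in HEK293T RIPA lysate. Lysates were treated with compound 29 or 30 at 50 or 200 µM for 4 h, then IA-DTB (500 µM, 1 h), trypsin-digested, NeutrAvidin-enriched and analysed by diaPASEF. Competition ratio = intensity DMSO / intensity compound (n=4 treated, n=64 DMSO); binding: mean log2 CR ≥ 1 and p ≤ 0.05 plus QC filters. Target is the cysteine site.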

Target	log2 mean competition ratio
OTUD5 C224 (UniProt Q96G74)	0.0633
PDLIM1 C263 (UniProt O00151)	0.25
PARD3 C66 (UniProt Q8TEW0)	-0.227
PFKM C709	0.282
PARD6G C112	0.115
PHACTR4 C328 (UniProt Q8IZ21)	0.0349
PA2G4 C296 (UniProt Q9UQ80)	-0.0901
PCIF1 C255 (UniProt Q9H4Z3)	-0.137
PCSK6 C528 (UniProt P29122)	-0.00511
PDE5A C447 (UniProt O76074)	0.024
PCM1 C582 (UniProt Q15154)	-0.0283
PATJ C941	0.322
PARP1 C162 (UniProt P09874)	0.196
PEAK1 C1437 (UniProt Q9H792)	0.0693
PARP16 C52 (UniProt Q8N5Y8)	0.089

Same assay, conditions: 200 µM; treatment time: 4 h; cell line lysate: HEK293T

Target	log2 mean competition ratio
OTUD5 C224 (UniProt Q96G74)	-0.115
PDLIM1 C263 (UniProt O00151)	-0.165
PARD3 C66 (UniProt Q8TEW0)	0.567
PFKM C709	0.64
PARD6G C112	0.297
PHACTR4 C328 (UniProt Q8IZ21)	-0.28
PA2G4 C296 (UniProt Q9UQ80)	-0.11
PCIF1 C255 (UniProt Q9H4Z3)	-0.0936
PCSK6 C528 (UniProt P29122)	-0.0387
PDE5A C447 (UniProt O76074)	0.33
PCM1 C582 (UniProt Q15154)	0.116
PATJ C941	0.115
PARP1 C162 (UniProt P09874)	-0.0373
PARP16 C52 (UniProt Q8N5Y8)	-0.0822

Compound: ClCC(=O)N[C@H]1CCCc2ccccc12
Assay: as above
Details: 50 µM; treatment time: 4 h; cell line lysate: HEK293T
Description: as §1

Target	log2 mean competition ratio
PAPOLA C677	-0.539
PDCD11 C151 (UniProt Q14690)	0.159
PEPD C482 (UniProt P12955)	-0.332
PCIF1 C404 (UniProt Q9H4Z3)	0.246
OTUD5 C224 (UniProt Q96G74)	0.0684
PASK C89 (UniProt Q96RG2)	0.0621
PALS2 C432	-0.479
PDLIM1 C263 (UniProt O00151)	0.0543
PARD3 C66 (UniProt Q8TEW0)	-0.356
PFKM C709	0.224
PAXIP1 C933 (UniProt Q6ZW49)	0.0135
PARD6G C112	0.185
P4HA2 C529 (UniProt O15460)	0.431
PDZD8 C667 (UniProt Q8NEN9)	-0.0689
PFN1 C128	-0.249
PCK2 C151 (UniProt Q16822)	-0.571
PAICS C281	0.168
PHACTR4 C328 (UniProt Q8IZ21)	0.439
PA2G4 C296 (UniProt Q9UQ80)	0.125

Target	log2 mean competition ratio
PCIF1 C255 (UniProt Q9H4Z3)	-0.259
PDE7A C402	0.153
PCM1 C171 (UniProt Q15154)	0.116
PCSK6 C528 (UniProt P29122)	-0.147
PAXX C180 (UniProt Q9BUH6)	0.0457
PDE5A C447 (UniProt O76074)	0.167
PDIA5 C465 (UniProt Q14554)	-0.518
PCM1 C582 (UniProt Q15154)	-0.0367
OTUD4 C903 (UniProt Q01804)	0.0775
PATJ C941	0.248
PARP1 C162 (UniProt P09874)	0.0768
PEAK1 C1437 (UniProt Q9H792)	0.0367
PAPSS2 C350 (UniProt O95340)	0.671
PEX6 C309 (UniProt Q13608)	-0.0876
PARP16 C52 (UniProt Q8N5Y8)	-0.025
PCBP2 C158	-0.116
PHC2 C673 (UniProt Q8IXK0)	0.163
PARD6G C16	-0.414

Same assay, conditions: 200 µM; treatment time: 4 h; cell line lysate: HEK293T

Target	log2 mean competition ratio
PAPOLA C677	-0.0284
PDCD11 C151 (UniProt Q14690)	0.0657
PEPD C482 (UniProt P12955)	0.753
PCIF1 C404 (UniProt Q9H4Z3)	0.0233
OTUD5 C224 (UniProt Q96G74)	-0.147
PASK C89 (UniProt Q96RG2)	-0.259
PALS2 C432	-0.104
PDLIM1 C263 (UniProt O00151)	-0.0889
PARD3 C66 (UniProt Q8TEW0)	0.454
PFKM C709	0.494
PAXIP1 C933 (UniProt Q6ZW49)	-0.00589
PARD6G C112	0.294
P4HA2 C529 (UniProt O15460)	-0.141
PDZD8 C667 (UniProt Q8NEN9)	0.0574
PFN1 C128	0.412
PCK2 C151 (UniProt Q16822)	0.44
PAICS C281	-0.198
PHACTR4 C328 (UniProt Q8IZ21)	0.147
PA2G4 C296 (UniProt Q9UQ80)	-0.089

Target	log2 mean competition ratio
PCIF1 C255 (UniProt Q9H4Z3)	0.0717
PDE7A C402	0.426
PCM1 C171 (UniProt Q15154)	0.279
PCSK6 C528 (UniProt P29122)	0.0442
PAXX C180 (UniProt Q9BUH6)	0.362
PDE5A C447 (UniProt O76074)	0.304
PDIA5 C465 (UniProt Q14554)	-0.817
PCM1 C582 (UniProt Q15154)	0.262
OTUD4 C903 (UniProt Q01804)	-0.0829
PATJ C941	0.0137
PARP1 C162 (UniProt P09874)	-0.166
PEAK1 C1437 (UniProt Q9H792)	-0.196
PAPSS2 C350 (UniProt O95340)	0.0743
PEX6 C309 (UniProt Q13608)	-0.359
PARP16 C52 (UniProt Q8N5Y8)	-0.0437
PCBP2 C158	-0.226
PHC2 C673 (UniProt Q8IXK0)	0.0118
PARD6G C16	-0.072
